These are yes or no findings as the source states them, for the method shown. Binding seen in cells or lysates may run through a third protein. Some results given as binding are weak or reduced against the parent protein; the word gives no strength.

Protein sequences, listed by entry. Tags and fused reporters are not part of them. Lines headed by an entry give the natural chain unless they say otherwise; changes in a name come on top.
UniProt P53563: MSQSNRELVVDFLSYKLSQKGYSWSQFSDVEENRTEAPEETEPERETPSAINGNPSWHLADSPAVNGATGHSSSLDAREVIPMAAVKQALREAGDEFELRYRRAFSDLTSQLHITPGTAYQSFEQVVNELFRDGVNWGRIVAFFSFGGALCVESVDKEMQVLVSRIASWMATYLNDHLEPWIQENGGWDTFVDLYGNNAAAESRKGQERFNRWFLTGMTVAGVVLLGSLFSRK

Assay [1] deals with T1, BBC3 protein (rat (endogenous in tissue of MCAO rats)) (UniProt Q80ZG6).
T1 sequence: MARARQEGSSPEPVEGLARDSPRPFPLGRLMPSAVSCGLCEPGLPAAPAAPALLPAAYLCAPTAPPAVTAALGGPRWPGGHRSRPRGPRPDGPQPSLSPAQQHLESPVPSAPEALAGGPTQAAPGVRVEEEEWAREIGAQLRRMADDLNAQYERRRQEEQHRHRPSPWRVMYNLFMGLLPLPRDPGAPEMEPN
The assay is described as follows: co-IP; tissues from animals homogenised; rabbit anti-BBC3 or anti-Bcl2l1 coupled to SiezeX beads (Pierce); eluted proteins separated by 12-15% SDS-PAGE and immunoblotted. For orientation: Immunoblotting shows a protein as a band on a membrane.

Assay [2] has as its target Bcl-XL protein (rat (endogenous in tissue of MCAO rats)) (UniProt P53563). The assay is described as above.

On to “Bcl-XL protein (from UniProt P53563-1 1-233)”, for which the binding result in assay [1] is “binds”.

B1: BBC3 protein (protein, UniProt Q80ZG6 1-193)
chain: MARARQEGSSPEPVEGLARDSPRPFPLGRLMPSAVSCGLCEPGLPAAPAAPALLPAAYLCAPTAPPAVTAALGGPRWPGGHRSRPRGPRPDGPQPSLSPAQQHLESPVPSAPEALAGGPTQAAPGVRVEEEEWAREIGAQLRRMADDLNAQYERRRQEEQHRHRPSPWRVMYNLFMGLLPLPRDPGAPEMEPN
For the molecule B1, the binding entry in assay [2] is “binds”.

The record behind these values is article PMC8087074.
